## Library screening results

Measurements from “University of Dundee, Small-Polar-MMV Screening Library” (2021), ChEMBL document CHEMBL3988442.

A: 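Whole-cell assay for inhibitors of Mycobacterium tuberculosis growth, labelled Cornell in the record; the read-out is not stated. The concentration is filed as 10 mM, unlikely as a test dose, so the dose is not known. The record gives no direction; compounds strong in two other growth screens of this library score well above the rest, so higher reads as stronger inhibition. Size under these conditions: about 53,000 compounds, about 900 of them at 50% or above in at least one test.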
B: 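Assay on Mycobacterium tuberculosis, filed only as a heat shock assay from Cornell; the read-out is not stated. The concentration is filed as 10 mM, unlikely as a test dose, so the dose is not known. Higher reads as stronger inhibition (inferred: compounds with an IC50 in retests scored well above the rest). Of about 69,000 compounds tested this way, about 930 (1.4%) reached 50% or more in at least one test.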

The filed quantity is “Percent Effect” (%). The record does not define 0% and 100%; most values in the screen are far below 50% and negative numbers occur (in some assays of this library far below -100). This is an unselected part of the compounds tested.

{"structure": "O=C(O)C(F)(F)F.O=C(O)C(F)(F)F.[H][C@@]12CCN(Cc3cccnc3)[C@]1([H])CC[C@H](C(=O)NCc1ccco1)O2", "A": 17.13, "B": -17.13}
{"structure": "O=C(NCCc1cccc(O)c1)NC1CCN(c2ccccc2)C1=O", "stereo": "stereo unspecified", "A": 22.47, "B": 7.679}
{"structure": "[H][C@@]12CCC(=O)N(CC3CCNCC3)[C@]1([H])CCN(Cc1ncc[nH]1)C2", "B": -11.01}
{"structure": "Cc1cccc(S(=O)(=O)NC2CCN(CC(F)(F)F)C2)c1", "stereo": "stereo unspecified", "B": -21.89}
{"structure": "CN(Cc1noc(C(C)(C)C)n1)Cc1ccccc1N1CCCCC1", "A": 2.184, "B": 7.105}
{"structure": "CN(Cc1nnc2n1CCC2)C(=O)Cc1ccc2c(c1)CCC2", "B": 2.782}
{"structure": "Cc1cc(C)n(C2CCN(Cc3c(-c4cc(C)on4)nn(C)c3Cl)C2)n1", "stereo": "stereo unspecified", "B": 31.12}
{"structure": "COCCN(Cc1ccc(F)cc1Cl)C(=O)c1ccc(=O)[nH]n1", "A": 13.94, "B": -9.163}
{"structure": "COc1cccc(-c2n[nH]c3c2CN(C(=O)C2=C(C)OCCO2)CC3)c1", "A": -36.45, "B": 23.7}
{"structure": "Cc1nc(C(C)C)sc1C(=O)NCCNc1ncccn1", "A": -38.7, "B": 0.6186}
{"structure": "COc1ccc2cnn(CC(=O)NCC3CCCO3)c(=O)c2c1OC", "stereo": "stereo unspecified", "A": -22.28, "B": -2.735}
{"structure": "CN1CCN(c2ccc(NCc3ccsc3)cn2)CC1", "B": -32.79}
{"structure": "COc1ccc([C@@H]2CN(Cc3cccnc3N)C[C@H]2NC(C)=O)cc1", "B": 9.026}
{"structure": "Cc1cccc(-c2c[nH]c(C3CCCN3C(=O)C3CCOCC3)n2)c1", "stereo": "stereo unspecified", "A": 15.52, "B": 3.486}
{"structure": "CC(C)c1ncc(CN2CCC(O)(c3ccccc3F)CC2)cn1", "A": -5.286, "B": -11}
{"structure": "N#CCc1ccc(NC(=O)N[C@H](CO)Cc2ccc(O)cc2)cc1", "B": -104.9}
{"structure": "CCSc1cc(C(=O)N(C(C)C)C2CC2)ccn1", "A": -6.652, "B": 0.3576}
{"structure": "COc1ccccc1-c1ccnc2nc(N3CCCCC3)[nH]c(=O)c12", "B": -26.31}
{"structure": "Cc1cnn(C2CCCN(C(=O)c3c(C)oc4nc[nH]c(=O)c34)C2)c1", "stereo": "stereo unspecified", "A": 13.09, "B": 19.37}
{"structure": "Cc1cc2nccc(C3CCCN(C(=O)c4cnccn4)C3)n2n1", "stereo": "stereo unspecified", "A": -4.62, "B": -6.649}
{"structure": "CCc1csc(CNCC(=O)Nc2ccc(Cl)c(C)c2)n1", "A": 32.36, "B": -23}
{"structure": "COc1cc(NC(=O)c2ccc(CN3CC[C@H](O)C3)cc2)cc(OC)c1", "B": 11.2}
{"structure": "CN1CCCCC1c1ncc2c(n1)CCN(CCCc1ccccc1)C2", "stereo": "stereo unspecified", "A": -21.93, "B": 101.2}
{"structure": "CC(C)NC(=O)C1CN(Cc2ccc(F)cc2)CC12CCOCC2.O=C(O)C(F)(F)F", "stereo": "stereo unspecified", "A": 28.79, "B": -19.53}
{"structure": "O=C(NCC1CCCN(C(=O)NCCc2ccccc2)C1)c1ccco1", "stereo": "stereo unspecified", "A": 15.9, "B": 7.664}
{"structure": "COCCN1CCCN(C(=O)c2scnc2C)CC1", "A": 8.803, "B": 21.93}
{"structure": "COc1cc(CN2CCn3c(CO)nnc3C2)ccc1OC(C)C.O=C(O)CC(O)(CC(=O)O)C(=O)O", "A": -49.01, "B": -10.49}
{"structure": "CC(C)CNC(=O)N1CCC2(CC1)OC(C(N)=O)Cn1ccnc12.O=C(O)C(F)(F)F", "stereo": "stereo unspecified", "A": -5.046, "B": 3.248}
{"structure": "O=C(CN1CCC(c2nnc(C(F)(F)F)o2)CC1)Nc1cccc(Cl)c1", "A": -3.212, "B": -28.37}
{"structure": "CN1N=C(C(=O)N2CCCC(n3ccnc3)C2)CCC1=O", "stereo": "stereo unspecified", "B": -24.22}
{"structure": "CCn1nc2c(cc1=O)CN(Cc1nc(C)c3ccccc3n1)CC2", "A": 23.39, "B": -5.092}
{"structure": "CCn1ncc2c1C(COC)CN(c1ncc(F)cn1)C2.O=C(O)C(F)(F)F.O=C(O)C(F)(F)F", "stereo": "stereo unspecified", "A": -3.317, "B": 55.18}
{"structure": "OC(CNc1ccncn1)CN1CCCCCC1", "stereo": "stereo unspecified", "A": -26.31, "B": -41.65}
{"structure": "COC(=O)c1cc(NCC(=O)NC(N)=O)cc(C(F)(F)F)c1", "A": 38.51, "B": 12.52}
{"structure": "O=C(CCOc1ccccc1F)N1CCCC1Cn1cccn1", "stereo": "stereo unspecified", "A": 1.287, "B": -10.57}
{"structure": "NC(=O)CC1CCN(S(=O)(=O)c2cnn(-c3ccccc3)c2)CC1", "B": 8.771}
{"structure": "Cc1cc(N(C)C)nc(N2CCn3c(C)nnc3C2)n1", "A": 12.33, "B": 13.64}
{"structure": "CC(C)Cc1cc(NC(=O)c2cccnc2)n(C)n1", "A": 1.133, "B": 8.142}
{"structure": "Cc1nc(C2CCN(c3ccccc3)CC2)no1", "A": 2.724, "B": 11.27}
{"structure": "COCc1cc(N(C)Cc2ncnn2C)nc(C(C)(C)C)n1", "A": 46.99, "B": -1.243}
{"structure": "CCOC(=O)NCCNC(=O)c1cc(Br)cn1C(C)C", "A": -18.97, "B": -32.75}
{"structure": "CCN(CC)C1CCN(C(=O)NCc2cccc(-n3cccn3)c2)C1", "stereo": "stereo unspecified", "A": 16.65, "B": 15.46}
{"structure": "CCS(=O)(=O)N1CCc2ccc(NC(=O)Nc3cccc(SC)c3)cc21", "A": 43.66, "B": -14.79}
{"structure": "[H][C@@]12CC[C@H](Oc3cccc(F)c3)[C@]1([H])CN(C(=O)c1ncccn1)C2", "A": 15.44, "B": -3.024}
{"structure": "Cc1ccccc1CSc1nc(N)cc(N2CCOC(C(N)=O)C2)n1", "stereo": "stereo unspecified", "A": 21.18, "B": 2.794}
{"structure": "CCSCCN1CCCN(S(C)(=O)=O)CC1", "A": 3.332, "B": -8.41}